For 32 compounds, AC50 results are on record in PubChem BioAssay AID1487 (National Center for Advancing Translational Sciences (NCATS), 2009).

The nature of this assay: qHTS Assay for Modulators of Lamin A Splicing. The conditions noted are these: HeLa LMNA splicing GFP/RFP minigene ratio, 48 h. The gist of the method: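 S3 HeLa stable clones carrying a lamin A-EGFP splicing minigene plus DsRed2 were seeded at 600 cells/well in Opti-MEM with 2% FBS, pin-dosed and incubated 48 h at 37°C. Acumen cytometry (488 nm) gave the GFP/RFP total-intensity ratio.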

Where [1] appears, read: measured here: GFP splicing reporter channel.
[2] abbreviates: measured here: RFP viability control channel.

Values joined by “and” are separate entries in the source; they are usually repeats but may differ in a detail not shown here. Equal values may be shown once. Some of the results follow. Shown are side measurements of this screen, not its main read-out; they come without a call. The list favours compounds with an active or inconclusive main result. Potencies come from curve fits of mixed quality, noted in brackets.

Broadly, the AC50 is the midpoint of the concentration-response curve, whichever way the signal moves. As to `Cc1ccc(OCC(=O)NCC(c2ccc(Cl)cc2)N2CCCCC2)cc1` (configuration not stated), the half-maximal activity concentration (AC50) under setting [1] is 31.6 µM [falling, single point].

Consider `Cc1cc(C(=O)Nc2ccccc2C(=O)O)ccc1NC(=O)COc1cccc([N+](=O)[O-])c1`, for which the AC50 is, setting by setting: under setting [1], 0.0891 µM [falling, full curve, poor fit]; under setting [2], 0.0562 µM [falling, full curve].

Regarding `O=S(=O)(c1ccccc1)N1CCN=C1SCc1cccc(Cl)c1`, the half-maximal activity concentration (AC50) is 11.2 µM [rising, single point] under setting [1] and 20 µM [rising, single point] under setting [2].

`O=Cc1ccccc1C=O`: the AC50 under setting [1] was 11.2 µM [rising, partial curve, poor fit].

With `CCOC(=O)C1=C(C)NC(C)=C(C(=O)OCC)C1/C=C/c1ccccc1OC`, the AC50 was 31.6 µM [rising, single point] under setting [1] and 35.5 µM [rising, single point] under setting [2].

On to `Cc1ccc(C(C(=O)NC(C)(C)C)N(Cc2ccccc2)C(=O)c2snc(C(N)=O)c2N)o1` (configuration not stated), for which the AC50 under setting [2] was 20 µM [rising, single point].

`CCC(C(=O)Nc1nnc2n1CCS2)c1ccccc1` (configuration not stated): the AC50 under setting [2] is 0.0708 µM [falling, full curve, poor fit].

On to `Cc1ccc(Nc2nc(N)c([N+](=O)[O-])c(NCc3ccco3)n2)cc1C`, for which the AC50 is 11.2 µM [falling, partial curve] under setting [1] and 14.1 µM [falling, single point] under setting [2].

For the compound `CCOc1ccc(-c2n[nH]c(C)c2Oc2ccccc2OC)c(O)c1`, the concentration at half-maximal activity (AC50) under setting [2] was 35.5 µM [rising, single point].

`CS(=O)(=O)N(Cc1ccccc1)c1ccc(C(=O)N2CCN(c3cccc(Cl)c3)CC2)cc1`: the AC50 under setting [2] is 22.4 µM [rising, single point].

As to `CC(=O)c1ccccc1NC(=O)CN1C(=O)CS/C1=C\c1nc(-c2ccc(C)cc2)cs1`, the AC50 under setting [1] was 0.00447 µM [falling, full curve, poor fit] and the concentration at half-maximal activity (AC50) under setting [2] was 0.00398 µM [falling, full curve, poor fit].

Turning to `CCOc1ccc2nc(NC(=O)CSc3nc4c(c(=O)n(C)c(=O)n4C)n3C(C)C)sc2c1`, the AC50 runs as follows: under setting [1], 15.8 µM [rising, partial curve, poor fit]; under setting [2], 10 µM [rising, partial curve].

As to `Cc1ccc(NS(=O)(=O)c2cnc(N)nc2)c(C)c1`, the concentration at half-maximal activity (AC50) under setting [1] is 0.0447 µM [falling, full curve, poor fit].

Take `Cc1ccccc1S(=O)(=O)Cc1ccc(C(=O)N2CCN(c3ccc(F)cc3)CC2)o1`: the concentration at half-maximal activity (AC50) under setting [2] was 31.6 µM [rising, single point].

As to `COc1ccc(-c2nn(-c3ccccc3)cc2/C=N/NC(=O)c2cccc(S(=O)(=O)Nc3ccccc3OC)c2)cc1`, under setting [2], the AC50 is 11.2 µM [rising, partial curve].

With `COc1ccccc1N1CCN(C(=O)c2ccc(Cl)c(S(=O)(=O)N3CCCC3)c2)CC1`, the AC50 under setting [1] is 2.82 µM [falling, partial curve, poor fit] and the AC50 under setting [2] is 3.16 µM [falling, partial curve, poor fit].

Regarding `Cc1cc(C)n(CC(=O)NCc2cc(-c3nn(C)c(=O)c4ccccc34)ccc2C)n1`, the AC50 under setting [1] was 10 µM [rising, partial curve] and the AC50 under setting [2] is 12.6 µM [rising, partial curve].

For the compound `Cc1ccccc1OCC(=O)Nc1ccccc1-c1ccccc1NC(=O)COc1ccccc1C`, the AC50 under setting [1] was 7.08 µM [rising, full curve, poor fit] and the AC50 under setting [2] is 7.94 µM [rising, partial curve, poor fit].

With `Cc1ccc(N(CC(=O)N/N=C/c2cccc(Br)c2)S(C)(=O)=O)cc1`, the AC50 is, setting by setting: under setting [1], 20 µM [rising, partial curve]; under setting [2], 14.1 µM [rising, partial curve].

Consider `Oc1ccc(N2CCN(C(=S)NCc3ccccc3)CC2)cc1`, for which the AC50 under setting [1] is 10 µM [falling, partial curve, poor fit].

In the case of `COCCNC(=S)N/N=C(\C)c1cccc(C(F)(F)F)c1`, the AC50 under setting [1] was 6.31 µM [falling, partial curve, poor fit].

Consider `CCCN(CCC)S(=O)(=O)c1ccc(C(=O)Nc2ccc(OCC(=O)N3CCOCC3)cc2)cc1`, for which the AC50 is 2.82 µM [rising, single point] under setting [1] and 3.16 µM [rising, full curve] under setting [2].

Regarding `Cc1cc(C(=O)COC(=O)CC2Sc3ccccc3NC2=O)c(C)n1-c1cccc(C(F)(F)F)c1` (configuration not stated), the AC50 under setting [2] was 35.5 µM [rising, single point].

As to `CCn1c(SCc2ccc(C(=O)Nc3nccs3)cc2)nnc1-c1ccc(N)cc1`, under setting [2], the AC50 was 17.8 µM [rising, single point].

`CCNC1=C(Cl)C(=O)c2ccccc2C1=O`: the AC50 by setting is: under setting [1], 7.08 µM [falling, partial curve]; under setting [2], 15.8 µM [falling, partial curve].

For the compound `O=C(Nc1ccc(Nc2ccccc2)cc1)C(Cl)(Cl)Cl`, the concentration at half-maximal activity (AC50) under setting [1] was 11.2 µM [rising, single point].

Consider `COc1ccc(NC(=O)c2cc(S(=O)(=O)N3CCCCC3)cn2C)cc1Cl`, for which the AC50 was 3.55 µM [falling, single point] under setting [1] and 1.26 µM [falling, full curve, poor fit] under setting [2].

For the compound `O=C(Nc1ccc(S(=O)(=O)N2CCCCC2c2cccnc2)cc1)c1ccc(F)cc1` (configuration not stated), the AC50 under setting [2] is 3.98 µM [falling, partial curve, poor fit].

Turning to `O=C(Nc1nc(-c2ccccn2)cs1)c1ccc(Br)s1`, the concentration at half-maximal activity (AC50) is, setting by setting: under setting [1], 35.5 µM [rising, single point]; under setting [2], 12.6 µM [rising, partial curve].

With `CN(C)c1ccc(-c2noc(C3CC(=O)N(c4ccc5c(c4)OCCO5)C3)n2)cc1` (configuration not stated), the AC50 under setting [2] was 12.6 µM [rising, single point].

For the compound `COc1cc(C(=O)OCCCN2CCCN(CCCOC(=O)c3cc(OC)c(OC)c(OC)c3)CC2)cc(OC)c1OC`, the AC50 by setting is: under setting [1], 708 nM [falling, full curve, poor fit] and 2 µM [falling, partial curve, poor fit]; under setting [2], 0.00158 µM [falling, full curve, poor fit].

Consider `COCCn1c(C)cc(C(=O)CSc2nncn2-c2ccccc2)c1C`, for which the AC50 under setting [1] was 15.8 µM [rising, single point].
